Measurements from patent US20260108547A1, “LEVERAGING L-FUCOSE-MEDIATED SIGNALING TO INDUCE MONOCYTE-DERIVED DENDRITIC CELL POLARIZATION” (H. LEE MOFFITT CANCER CENTER AND RESEARCH INSTITUTE, INC., priority 2022, published 2026).

Columns and labels:
[1] = target: V5-tagged HLA-DRB1 N48G (human); test: lectin pulldown (AAL agarose) and immunoblot, WM793 lysates
[2] = target: V5-tagged HLA-DRB1 T129A (human); test: as above
[3] = target: V5-tagged wild-type HLA-DRB1 (human); test: as above
[4] = target: V5-tagged wild-type HLA-DRB1 (human); test: V5 immunoprecipitation and blot probed with AAL, WM793 cells
[5] = target: HLA-DRB1 (endogenous, human melanoma cell lines) (human); test: lectin pulldown and immunoblot, melanoma cell lysates

binding [1]: no binding
binding [2]: binds
binding [3]: binds
binding [4]: binds
binding [5]: binds
B1: Aleuria aurantia lectin (AAL) (protein, UniProt P18891 2-313, looked up)
chain: PTEFLYTSKIAAISWAATGGRQQRVYFQDLNGKIREAQRGGDNPWTGGSSQNVIGEAKLFSPLAAVTWKSAQGIQIRVYCVNKDNILSEFVYDGSKWITGQLGSVGVKVGSNSKLAALQWGGSESAPPNIRVYYQKSNGSGSSIHEYVWSGKWTAGASFGSTVPGTGIGATAIGPGRLRIYYQATDNKIREHCWDSNSWYVGGFSASASAGVSIAAISWGSTPNIRVYWQKGREELYEAAYGGSWNTPGQIKDASRPTPSLPDTFIAANSSGNIDISVFFQASGVSLQQWQWISGKGWSIGAVVPTGTPAGW

No constants are given. Whether binding was seen depends on the method and setting. For some assays here: A result given as binding can be weak or reduced; the word gives no strength. For some assays here: In cells and extracts the contact can be indirect.
